Measured values reported in PMC9902482.
These are yes or no findings as the source states them, for the method shown. Some entries that bind do so weakly or less than the wild type.

Target: T1, full-length FLRT3 expressed on HEK293T cells (UniProt Q9NZU0)
T1 sequence: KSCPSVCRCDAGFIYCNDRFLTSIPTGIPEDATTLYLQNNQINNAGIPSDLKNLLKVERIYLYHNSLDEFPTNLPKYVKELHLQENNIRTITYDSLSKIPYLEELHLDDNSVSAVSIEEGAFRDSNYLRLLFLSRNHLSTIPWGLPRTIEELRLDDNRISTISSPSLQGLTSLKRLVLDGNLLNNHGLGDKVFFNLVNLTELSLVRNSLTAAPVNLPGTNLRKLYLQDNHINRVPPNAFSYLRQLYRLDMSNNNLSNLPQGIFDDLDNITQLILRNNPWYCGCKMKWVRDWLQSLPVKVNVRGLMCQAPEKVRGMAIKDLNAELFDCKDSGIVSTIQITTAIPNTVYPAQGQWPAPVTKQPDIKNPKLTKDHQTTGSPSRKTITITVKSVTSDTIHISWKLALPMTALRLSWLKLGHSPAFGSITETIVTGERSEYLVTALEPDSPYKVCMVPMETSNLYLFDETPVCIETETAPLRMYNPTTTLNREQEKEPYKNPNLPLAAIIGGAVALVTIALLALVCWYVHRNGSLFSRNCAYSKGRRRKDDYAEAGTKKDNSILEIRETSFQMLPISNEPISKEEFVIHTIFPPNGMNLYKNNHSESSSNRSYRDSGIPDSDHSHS
Assay: cell aggregation assay; two populations of HEK293T cells, each expressing one full-length protein (with GFP or dsRed), mixed 1:1 in DMEM with 10% FBS, 10 mM CaCl2, 10 mM MgCl2, with 5 µM sAB or HBS, 10 min at 27 °C, 120 rpm; aggregation index from images

B1: full-length ADGRL3 expressed on HEK293T cells (receptor, UniProt Q9HAR2 20-1447)
chain: FSRAPIPMAVVRRELSCESYPIELRCPGTDVIMIESANYGRTDDKICDSDPAQMENIRCYLPDAYKIMSQRCNNRTQCAVVAGPDVFPDPCPGTYKYLEVQYECVPYKVEQKVFLCPGLLKGVYQSEHLFESDHQSGAWCKDPLQASDKIYYMPWTPYRTDTLTEYSSKDDFIAGRPTTTYKLPHRVDGTGFVVYDGALFFNKERTRNIVKFDLRTRIKSGEAIIANANYHDTSPYRWGGKSDIDLAVDENGLWVIYATEQNNGKIVISQLNPYTLRIEGTWDTAYDKRSASNAFMICGILYVVKSVYEDDDNEATGNKIDYIYNTDQSKDSLVDVPFPNSYQYIAAVDYNPRDNLLYVWNNYHVVKYSLDFGPLDSRSGQAHHGQVSYISPPIHLDSELERPSVKDISTTGPLGMGSTTTSTTLRTTTLSPGRSTTPSVSGRRNRSTSTPSPAVEVLDDMTTHLPSASSQIPALEESCEAVEAREIMWFKTRQGQIAKQPCPAGTIGVSTYLCLAPDGIWDPQGPDLSNCSSPWVNHITQKLKSGETAANIARELAEQTRNHLNAGDITYSVRAMDQLVGLLDVQLRNLTPGGKDSAARSLNKAMVETVNNLLQPQALNAWRDLTTSDQLRAATMLLHTVEESAFVLADNLLKTDIVRENTDNIKLEVARLSTEGNLEDLKFPENMGHGSTIQLSANTLKQNGRNGEIRVAFVLYNNLGPYLSTENASMKLGTEALSTNHSVIVNSPVITAAINKEFSNKVYLADPVVFTVKHIKQSEENFNPNCSFWSYSKRTMTGYWSTQGCRLLTTNKTHTTCSCNHLTNFAVLMAHVEVKHSDAVHDLLLDVITWVGILLSLVCLLICIFTFCFFRGLQSDRNTIHKNLCISLFVAELLFLIGINRTDQPIACAVFAALLHFFFLAAFTWMFLEGVQLYIMLVEVFESEHSRRKYFYLVGYGMPALIVAVSAAVDYRSYGTDKVCWLRLDTYFIWSFIGPATLIIMLNVIFLGIALYKMFHHTAILKPESGCLDNIKSWVIGAIALLCLLGLTWAFGLMYINESTVIMAYLFTIFNSLQGMFIFIFHCVLQKKVRKEYGKCLRTHCCSGKSTESSIGSGKTSGSRTPGRYSTGSQSRIRRMWNDTVRKQSESSFITGDINSSASLNREGLLNNARDTSVMDTLPLNGNHGNSYSIASGEYLSNCVQIIDRGYNHNETALEKKILKELTSNYIPSYLNNHERSSEQNRNLMNKLVNNLGSGREDDAIVLDDATSFNHEESLGLELIHEESDAPLLPPRVYSTENHQPHHYTRRRIPQDHSESFFPLLTNEHTEDLQSPHRDSLYTSMPTLAGVAATESVTTSTQTEPPPAKCGDAEDVYYKSMPNLGSRNHVHQLHTYYQLGRGSSDGFIVPPNKDGTPPEGSSKGPAHLVTSL
**Q.** With B1 as the binder, how does the binding read?
**A.** Its binding is “binds”.
